Results are given in words; binding and its absence hold for the method and conditions named. In cells and extracts the contact can be indirect. For some assays here: Binding calls can cover weak binding; strength is not graded here.
Columns and labels:
Test in all cases: co-IP
[1] = molecular target: RNF26 deletion mutant 76–433 (UniProt Q9BY78)
[2] = molecular target: RNF26 deletion mutant 241–433 (UniProt Q9BY78)
[3] = molecular target: T1, RNF26 deletion mutant 1–385 (UniProt Q9BY78)
T1 sequence: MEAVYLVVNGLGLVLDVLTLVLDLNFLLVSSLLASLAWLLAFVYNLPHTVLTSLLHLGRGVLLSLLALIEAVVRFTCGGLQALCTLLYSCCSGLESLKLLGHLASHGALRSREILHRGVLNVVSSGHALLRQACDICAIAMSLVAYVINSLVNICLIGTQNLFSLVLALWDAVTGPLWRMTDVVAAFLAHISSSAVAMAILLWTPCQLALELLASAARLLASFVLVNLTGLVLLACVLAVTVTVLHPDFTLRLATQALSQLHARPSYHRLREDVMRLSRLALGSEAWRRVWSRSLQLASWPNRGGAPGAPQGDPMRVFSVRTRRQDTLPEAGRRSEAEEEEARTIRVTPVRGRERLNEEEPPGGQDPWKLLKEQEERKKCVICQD

[4] = molecular target: T2, RNF26 deletion mutant 241–385 (UniProt Q9BY78)
T2 sequence: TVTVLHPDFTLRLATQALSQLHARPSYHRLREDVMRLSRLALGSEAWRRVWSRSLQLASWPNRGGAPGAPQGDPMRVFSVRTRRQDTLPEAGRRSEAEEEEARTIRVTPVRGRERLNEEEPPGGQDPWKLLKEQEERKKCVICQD

[5] = molecular target: T3, RNF26 deletion mutant 76–385 (UniProt Q9BY78)
T3 sequence: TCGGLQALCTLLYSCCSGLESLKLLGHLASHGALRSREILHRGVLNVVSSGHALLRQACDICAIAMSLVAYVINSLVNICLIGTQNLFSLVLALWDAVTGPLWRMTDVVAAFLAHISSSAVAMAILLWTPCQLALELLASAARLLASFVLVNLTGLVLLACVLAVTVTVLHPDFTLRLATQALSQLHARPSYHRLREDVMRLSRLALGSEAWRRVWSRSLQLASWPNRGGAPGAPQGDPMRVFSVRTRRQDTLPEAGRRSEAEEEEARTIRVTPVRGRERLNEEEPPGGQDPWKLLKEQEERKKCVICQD

EBOV-GP1,2 with a HiBiT tag (from UniProt Q05320)
binding [1]: binds | binding [2]: no binding | binding [3]: binds | binding [4]: no binding | binding [5]: binds
